In PMC11267380, “USP25 Elevates SHLD2‐Mediated DNA Double‐Strand Break Repair and Regulates Chemoresponse in Cancer” (Advanced Science, 2024):
Results are given in words; binding and its absence hold for the method and conditions named. For some assays here: In cells and extracts the contact can be indirect. Some entries that bind do so weakly or less than the wild type.

By UniProt entry, the sequences of proteins in these tests, tags left out.
UniProt Q9UHP3: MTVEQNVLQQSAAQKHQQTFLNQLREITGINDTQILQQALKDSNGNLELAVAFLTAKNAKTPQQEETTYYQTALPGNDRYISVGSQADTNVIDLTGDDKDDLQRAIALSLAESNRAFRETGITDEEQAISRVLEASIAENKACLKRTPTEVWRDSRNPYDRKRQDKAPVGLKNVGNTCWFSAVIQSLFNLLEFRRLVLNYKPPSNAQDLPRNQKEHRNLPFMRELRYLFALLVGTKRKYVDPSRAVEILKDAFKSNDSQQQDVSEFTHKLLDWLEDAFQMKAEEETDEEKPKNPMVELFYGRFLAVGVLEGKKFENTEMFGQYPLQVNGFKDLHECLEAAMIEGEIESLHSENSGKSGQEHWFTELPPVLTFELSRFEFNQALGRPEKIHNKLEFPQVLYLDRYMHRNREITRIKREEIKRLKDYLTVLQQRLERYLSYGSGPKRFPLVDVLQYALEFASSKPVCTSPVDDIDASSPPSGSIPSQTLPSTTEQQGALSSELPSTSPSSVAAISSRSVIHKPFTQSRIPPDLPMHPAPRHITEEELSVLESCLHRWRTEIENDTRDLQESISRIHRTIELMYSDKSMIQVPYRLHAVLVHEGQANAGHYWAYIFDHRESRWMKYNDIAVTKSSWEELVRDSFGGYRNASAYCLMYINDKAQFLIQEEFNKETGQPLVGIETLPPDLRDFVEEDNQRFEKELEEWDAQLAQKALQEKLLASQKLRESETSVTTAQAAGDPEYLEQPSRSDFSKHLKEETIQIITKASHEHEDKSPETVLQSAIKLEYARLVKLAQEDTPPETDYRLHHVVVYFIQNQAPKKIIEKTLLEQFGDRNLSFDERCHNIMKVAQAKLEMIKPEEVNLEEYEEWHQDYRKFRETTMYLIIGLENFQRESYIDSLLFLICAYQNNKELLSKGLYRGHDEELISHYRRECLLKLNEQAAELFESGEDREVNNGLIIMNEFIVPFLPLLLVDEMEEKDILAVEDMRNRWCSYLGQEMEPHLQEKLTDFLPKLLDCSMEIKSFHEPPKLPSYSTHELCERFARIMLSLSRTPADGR

Key:
[1] = target: USP25 (as used for SPR) (UniProt Q9UHP3); assay: SPR; kinetic interaction of the SH peptides and USP25; who was immobilised and the conditions are not stated; both purified
[2] = target: HA-USP25 (USP25^WT in PLVX-CMV-HA) (UniProt Q9UHP3); assay: co-IP; cell lysates on HA resin (HA-USP25), immunoprecipitates blotted for TRIM25, HECTD3, NEDD4L and WWP2

| Binder | binding [1] | binding [2] |
| --- | --- | --- |
| EKQHKNLENYKVPESI [SH-2 peptide] | binds |  |
| MSVADPWKKIQLLYS [SH-1 peptide] | binds |  |
| HECTD3 (enzyme, UniProt Q5T447 1-861) MAGPGPGAVLESPRQLLGRVRFLAEAARSLRAGRPLPAALAFVPREVLYKLYKDPAGPSRVLLPVWEAEGLGLRVGAAGPAPGTGSGPLRAARDSIELRRGACVRTTGEELCNGHGLWVKLTKEQLAEHLGDCGLQEGWLLVCRPAEGGARLVPIDTPNHLQRQQQLFGVDYRPVLRWEQVVDLTYSHRLGSRPQPAEAYAEAVQRLLYVPPTWTYECDEDLIHFLYDHLGKEDENLGSVKQYVESIDVSSYTEEFNVSCLTDSNADTYWESDGSQCQHWVRLTMKKGTIVKKLLLTVDTTDDNFMPKRVVVYGGEGDNLKKLSDVSIDETLIGDVCVLEDMTVHLPIIEIRIVECRDDGIDVRLRGVKIKSSRQRELGLNADLFQPTSLVRYPRLEGTDPEVLYRRAVLLQRFIKILDSVLHHLVPAWDHTLGTFSEIKQVKQFLLLSRQRPGLVAQCLRDSESSKPSFMPRLYINRRLAMEHRACPSRDPACKNAVFTQVYEGLKPSDKYEKPLDYRWPMRYDQWWECKFIAEGIIDQGGGFRDSLADMSEELCPSSADTPVPLPFFVRTANQGNGTGEARDMYVPNPSCRDFAKYEWIGQLMGAALRGKEFLVLALPGFVWKQLSGEEVSWSKDFPAVDSVLVKLLEVMEGMDKETFEFKFGKELTFTTVLSDQQVVELIPGGAGIVVGYGDRSRFIQLVQKARLEESKEQVAAMQAGLLKVVPQAVLDLLTWQELEKKVCGDPEVTVDALRKLTRFEDFEPSDSRVQYFWEALNNFTNEDRSRFLRFVTGRSRLPARIYIYPDKLGYETTDALPESSTCSSTLFLPHYASAKVCEEKLRYAAYNCVAIDTDMSPWEE |  | binds |

The next lines start with the values.

| binding [1] | binding [2] | Binder |
| --- | --- | --- |
| binds |  | KNFNTNLFQLGHKCA [SH-4 peptide] |
| binds |  | FTEEEKYQKLLSENK [SH-3 peptide] |
